{"source": "PubChem BioAssay AID1259308 (NCATS, 2017)", "test": "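Knock-downs that increase output of a recombinant reporter protein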 (primary screen)", "system": "human HEK293 embryonic kidney cells stably expressing firefly luciferase (HEK-CMV-Luc2-Hygro)", "reagent": "single siRNA against human genes, 0.8 pmol siRNA per well", "time to read-out": "72 h", "read-out": "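Reporter luminescence and viable-cell signal on separate replicate plates, given as percent of non-targeting control and median/MAD z-scores, plus per-cell luciferase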", "direction": "total luciferase, z-score: higher = more reporter protein produced", "hit rule": "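An siRNA counts as active if its total luciferase robust z-score exceeds 3; genes with two or more such siRNAs out of three were retested with fresh siRNAs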", "meaning of the calls": "active = raised luciferase; inactive = no rise", "note": "The deposit covers about 59,000 reagents; this is a random part of them. In the full data, about 1,510 (2.6%) were called active. 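Calls use total luciferase alone and ignore viability, so some active siRNAs may act by altering cell number.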 A number with no mark means an inactive call. Reagents against one gene are numbered here. Not all columns of the deposit are shown."}
{"target gene": "WDR77 (WD repeat domain 77)", "siRNA no.": 1, "total luciferase, z-score": 1.03}
{"target gene": "WDR77 (WD repeat domain 77)", "siRNA no.": 2, "total luciferase, z-score": 0.0437}
{"target gene": "WDR77 (WD repeat domain 77)", "siRNA no.": 3, "total luciferase, z-score": -2.37}
{"target gene": "SNRPA (small nuclear ribonucleoprotein polypeptide A)", "siRNA no.": 1, "total luciferase, z-score": -0.14}
{"target gene": "SNRPA (small nuclear ribonucleoprotein polypeptide A)", "siRNA no.": 2, "total luciferase, z-score": 1.44}
{"target gene": "SNRPA (small nuclear ribonucleoprotein polypeptide A)", "siRNA no.": 3, "total luciferase, z-score": 0.722}

No new results follow: entries from further up.
{"target gene": "WDR77 (WD repeat domain 77)", "siRNA no.": 2, "total luciferase, z-score": 0.0437}
{"target gene": "WDR77 (WD repeat domain 77)", "siRNA no.": 3, "total luciferase, z-score": -2.37}

Next entries:
{"target gene": "SNX9 (sorting nexin 9)", "siRNA no.": 1, "total luciferase, z-score": "7.42 (active)"}
{"target gene": "SNX9 (sorting nexin 9)", "siRNA no.": 2, "total luciferase, z-score": -0.195}
{"target gene": "SNX9 (sorting nexin 9)", "siRNA no.": 3, "total luciferase, z-score": 1.27}
{"target gene": "EFTUD2 (elongation factor Tu GTP binding domain containing 2)", "siRNA no.": 1, "total luciferase, z-score": 0.337}
{"target gene": "EFTUD2 (elongation factor Tu GTP binding domain containing 2)", "siRNA no.": 2, "total luciferase, z-score": 0.905}
{"target gene": "EFTUD2 (elongation factor Tu GTP binding domain containing 2)", "siRNA no.": 3, "total luciferase, z-score": -1.79}
